# Assay results reported in PMC5282477.
# Chains of the proteins cited; added tags and fusions are not shown.
# UniProt P04150: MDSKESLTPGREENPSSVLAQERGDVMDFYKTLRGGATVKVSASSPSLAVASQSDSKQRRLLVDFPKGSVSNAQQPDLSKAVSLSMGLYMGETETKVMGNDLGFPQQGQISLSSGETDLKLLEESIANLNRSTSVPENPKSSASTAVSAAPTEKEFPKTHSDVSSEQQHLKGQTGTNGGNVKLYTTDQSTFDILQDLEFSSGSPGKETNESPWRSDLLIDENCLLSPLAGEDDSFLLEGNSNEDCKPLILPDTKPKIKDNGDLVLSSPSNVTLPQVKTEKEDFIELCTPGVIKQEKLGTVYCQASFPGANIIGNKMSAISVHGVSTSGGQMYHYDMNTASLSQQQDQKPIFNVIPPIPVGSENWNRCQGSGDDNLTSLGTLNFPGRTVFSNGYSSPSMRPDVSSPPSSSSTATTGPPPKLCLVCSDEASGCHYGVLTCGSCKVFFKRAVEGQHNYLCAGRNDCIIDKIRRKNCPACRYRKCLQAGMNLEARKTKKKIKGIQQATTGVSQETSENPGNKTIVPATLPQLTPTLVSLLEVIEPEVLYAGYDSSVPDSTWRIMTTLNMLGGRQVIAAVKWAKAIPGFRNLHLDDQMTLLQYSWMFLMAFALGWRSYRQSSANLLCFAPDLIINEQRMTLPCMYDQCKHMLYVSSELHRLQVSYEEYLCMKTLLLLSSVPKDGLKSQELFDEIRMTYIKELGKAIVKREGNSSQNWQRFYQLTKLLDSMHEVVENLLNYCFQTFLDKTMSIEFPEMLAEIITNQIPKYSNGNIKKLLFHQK
# UniProt Q96H86: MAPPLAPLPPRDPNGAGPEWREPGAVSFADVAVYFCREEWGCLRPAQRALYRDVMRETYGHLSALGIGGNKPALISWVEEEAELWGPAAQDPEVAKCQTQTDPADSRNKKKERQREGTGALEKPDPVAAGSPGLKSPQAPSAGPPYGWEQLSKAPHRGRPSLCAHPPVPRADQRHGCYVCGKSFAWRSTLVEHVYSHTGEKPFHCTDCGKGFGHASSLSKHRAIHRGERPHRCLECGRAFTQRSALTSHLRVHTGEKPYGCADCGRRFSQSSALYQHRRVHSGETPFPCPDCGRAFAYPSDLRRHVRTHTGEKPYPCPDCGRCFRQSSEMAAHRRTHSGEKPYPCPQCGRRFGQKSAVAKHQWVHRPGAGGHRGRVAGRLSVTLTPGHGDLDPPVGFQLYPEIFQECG
# Results are given in words; binding and its absence hold for the method and conditions named. In cells and extracts the contact can be indirect. Some binding calls cover weakened binding; strength is not graded here.
# Target: glucocorticoid receptor (GR), endogenous in HeLa cells (human (endogenous in HeLa)) (UniProt P04150)
# Assay: co-IP; HeLa cells treated with 10^-6 M dexamethasone or vehicle for 3 hours; immunoprecipitation with anti-GR antibody or control IgG, Western blot for ZNF764; both proteins endogenous
substance,measurement,value
"zinc finger protein ZNF764, endogenous in HeLa cells (from UniProt Q96H86 1-408)",binding,binds
